This is one part of the list. Shown are side measurements of this screen, not its main read-out; they come without a call. Compounds called inactive in the main read-out are mostly missing here. Words in brackets tell the shape of the fitted curve; partial curves, single points and poor fits give uncertain potencies.
Assay: qHTS Assay for Lipid Storage Modulators in Drosophila S3 Cells;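 for cell number change: cells counted by Cell Tracker Red CMTPX staining in the red channel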
Conditions: BODIPY lipid droplet fluorescence, 18-24 h; for cell number change: measured here: cell count max response, cells fed with added oleic acid
Outline: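 Laser-scanning cytometry quantifies lipid droplet accumulation (500–530 nm total intensity; droplet/cell object ratio) in oleic acid-fed (400 uM added) Drosophila S3 cells treated with a concentration series. 20 uM Triacsin C defined 100% inhibition.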

[1] = measured here: lipid fluorescence (Fed channel) AC50, cells fed with added oleic acid
[2] = measured here: cell number channel AC50, cells fed with added oleic acid

SMILES | cell number change | AC50 [1] | AC50 [2]
COc1ccc(NC(=O)C2CCCN(S(=O)(=O)c3cccc4nonc34)C2)c(OC)c1 (centres undefined) | 29.4% | 1.84 µM [rising, partial curve] | –
Cc1cc(C)cc(NC(=O)[C@H](Cc2c[nH]c3ccccc23)NC(=O)[C@@H]2Cc3ccccc3CN2)c1 | -1.37% | 29.1 µM [falling, single point] | –
Cc1ccc(C(=O)Nc2cccc(C(=O)NCc3ccccc3)c2)cc1 | 9.73% | 0.146 µM [falling, single point] | –
O=C(CCC(=O)NC12CC3CC(CC(C3)C1)C2)NC1CCCCC1 | -20.3% | 6.51 µM [falling, single point] | –
c1ccc2c(-n3cccn3)cccc2c1 | -3.37% | 0.58 µM [falling, single point] | –
O=C1Nc2ccc(Br)cc2/C1=C/C(=O)c1ccc2c(c1)OCO2 | -57.2% | 29.1 µM [falling, single point] | 23.1 µM [falling, single point]
Brc1ccc(-c2nc(-c3ccncc3)no2)cc1 | 24.7% | 5.17 µM [rising, partial curve] | –
CCOC(=O)c1ccc(N/C=C/C(=O)c2ccco2)cc1 | – | 6.51 µM [falling, partial curve, poor fit] | –
O=C(NCCCCNC(=O)c1ccccc1Cl)c1ccccc1Cl | 11.5% | – | –
CCOc1ccc(C(C)NC(=O)c2ccccc2F)cc1 (centres undefined) | 10.4% | 13 µM [rising, partial curve, poor fit] | –
Clc1ccc(Cl)c(OCCCCNCc2ccccc2)c1 | -4.44% | – | –
O=C(/C=C/c1ccc(O)c(O)c1)OC(Cc1ccc(O)c(O)c1)C(=O)O (centres undefined) | 1.61% | 29.1 µM [rising, single point] | –
CCCN1Cc2cccc(C(=O)NC(CC(=O)OCC)c3ccc(OC(C)C)cc3)c2C1=O (centres undefined) | -24.3% | 20.6 µM [falling, single point] | –
CCNC(=O)CC1SC(=Nc2ccc(Cl)cc2)N(CC)C1=O (centres undefined) | -11.1% | 20.6 µM [rising, single point] | –
COc1cc([N+](=O)[O-])ccc1N1C(=O)CC(Sc2nccc(C)n2)C1=O (centres undefined) | -12.9% | 16.4 µM [falling, single point] | –
COC(=O)c1c(-c2ccccc2)csc1N | -0.557% | – | 3.66 µM [rising, partial curve, poor fit]
CCOP(=O)(OCC)C(Nc1cc(Cl)cc(Cl)c1)c1cccc(O)c1 (centres undefined) | -26.3% | 0.00461 µM [falling, full curve, poor fit] | –
O=C1CC(=O)N(Cc2cccs2)C(=O)N1 | -8.18% | 6.51 µM [falling, single point] | –

A second format for 2 compounds above.

| SMILES | cell number change | AC50 [1] | AC50 [2] |
| --- | --- | --- | --- |
| COC(=O)c1c(-c2ccccc2)csc1N | -0.557% | – | 3.66 µM [rising, partial curve, poor fit] |
| CCOP(=O)(OCC)C(Nc1cc(Cl)cc(Cl)c1)c1cccc(O)c1 (centres undefined) | -26.3% | 0.00461 µM [falling, full curve, poor fit] | – |
